According to patent US20250313621A1:
Numbering of substitutions follows the chain as printed. No constants are given. Whether binding was seen depends on the method and setting. Some results given as binding are weak or reduced against the parent protein; the word gives no strength. One block for each binder: values may come before it.

Amino acid sequences for entries named in this document (tags omitted). A change or cut given only in a name is not applied to a line headed by its entry.
UniProt P55085: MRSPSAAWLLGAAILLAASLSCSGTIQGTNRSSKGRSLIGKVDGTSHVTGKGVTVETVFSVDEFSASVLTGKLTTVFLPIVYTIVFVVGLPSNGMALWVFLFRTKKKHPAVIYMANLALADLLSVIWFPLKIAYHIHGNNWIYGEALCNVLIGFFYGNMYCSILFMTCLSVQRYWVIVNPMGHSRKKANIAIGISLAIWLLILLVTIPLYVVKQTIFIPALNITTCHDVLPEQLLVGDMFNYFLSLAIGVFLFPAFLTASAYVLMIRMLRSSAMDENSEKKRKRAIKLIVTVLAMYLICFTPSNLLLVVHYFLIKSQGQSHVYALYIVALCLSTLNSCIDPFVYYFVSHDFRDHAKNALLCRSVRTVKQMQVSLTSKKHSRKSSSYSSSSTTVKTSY

Assays:
[1] = target: Wildtype human PAR2 expressed on cells (human) (UniProt P55085); assay: Human PAR2 binding (overview of maturation candidates)
[2] = target: PAR2-2: P166: 1-377, de-glycosylated: N30Q, N222Q, pFastBacHis StrepII, full length (human) (UniProt P55085); assay: Koff-ranking ELISA, antibody titration on soluble FL-PAR2 StaR, lower panel, S/BG
[3] = target: PAR2-1: P151: 55-377, glycosylated, pFastBacHisStrepII, truncated (human) (UniProt P55085); assay: Koff-ranking ELISA, antibody titration on soluble Truncated PAR2 StaR, lower panel, S/BG
[4] = target: PAR2-2: P166: 1-377, de-glycosylated: N30Q, N222Q, pFastBacHis StrepII, full length (human) (UniProt P55085); assay: Koff-ranking ELISA, antibody titration on FL-PAR2 StaR NanoDisc (deglyc), upper panel, S/BG
[5] = target: PAR2-1: P151: 55-377, glycosylated, pFastBacHisStrepII, truncated (human) (UniProt P55085); assay: Koff-ranking ELISA, antibody titration on Truncated PAR2 StaR NanoDisc (low glyc), upper panel, S/BG
[6] = target: PAR2-2: P166: 1-377, de-glycosylated: N30Q, N222Q, pFastBacHis StrepII, full length (human) (UniProt P55085); assay: ELISA, antibody coated at 5 ug/mL, FL-StaR nanodisc at 50 and 5 nM, empty nanodisc as control, S/BG [continued]
[7] = target: PAR2-2: P166: 1-377, de-glycosylated: N30Q, N222Q, pFastBacHis StrepII, full length (human) (UniProt P55085); assay: competition ELISA on full length PAR2 StaR nanodisc, 50 nM candidate mAb with 200, 100, 50, 25, 0 nM R&D anti-huPAR2 (MAB3949) as competitor, S/BG
[8] = target: Soluble PAR2 StaR (recombinant human PAR2 StaR protein in detergent, construct not stated) (human) (UniProt P55085); assay: in depth characterisation, purified PAR2
[9] = target: Wildtype human PAR2 expressed on cells (human) (UniProt P55085); assay: in depth characterisation, cell surface expressed PAR2
[10] = target: Wildtype human PAR2 expressed on cells (human) (UniProt P55085); assay: flow cytometry on BacMam-infected HEK293F cells, 20 nM antibody
[11] = target: Wildtype human PAR2 expressed on cells (human) (UniProt P55085); assay: flow cytometry on over-expressing cells, overnight at about 5 C with sodium azide
[12] = target: Wildtype human PAR2 expressed on cells (human) (UniProt P55085); assay: flow cytometry on BacMam-infected HEK293F cells, 20 nM antibody, APC anti-human IgG
[13] = target: Soluble PAR2 StaR (recombinant human PAR2 StaR protein in detergent, construct not stated) (human) (UniProt P55085); assay: SPR Biacore; Y22883 captured to 280-320 RU, 100 nM PAR2 injected, then pH 6.0 buffer for 5 minutes
[14] = target: Wildtype human PAR2 expressed on cells (human) (UniProt P55085); assay: flow cytometry on HEK293F-humanPAR2 (3.0E+06 cells/mL, w/ NaN3), overnight at about 5 C, S/BG
[15] = target: Soluble PAR2 StaR (recombinant human PAR2 StaR protein in detergent, construct not stated) (human) (UniProt P55085); assay: SPR (Biacore), Y22883 captured to 280-320 RU, 100 nM PAR2 injected for 2 min, pH 6.0 buffer injected during dissociation
[16] = target: Wildtype human PAR2 expressed on cells (human) (UniProt P55085); assay: flow cytometry on HEK293F-humanPAR2 (3.0E+06 cells/mL), S/BG [continued]
[17] = target: V5His-huPAR2 on Flp-In CHO cells (human) (UniProt P55085); assay: flow cytometry, Fab fragments on human PAR2 expressing CHO cells (CHO line not further named in the legend), S/BG

- binding [1]: binds
- binding [2]: binds
- binding [3]: binds
- binding [4]: binds
- binding [5]: binds
- binding [6]: binds
- binding [7]: binds
B1: Y021171 (antibody, V domains shown)
VH: EVQLVESGGGLVKPGGSLRLSCAASGFTFSSYSINWVRQAPGKGLEWVSSISSSSSYTYYAESVKGRFTISRDNAKNSLYLQMNSLRAEDTAVYYCARAASGFAIFDYWGQGTLVTVSS
VL: DIQMTQSPSSVSASVGDRVTITCRASQGISSWLAWYQQKPGKAPKLLIYAASSLQSGVPSRFSGSGSGTDFTLTISSLQPEDFATYYCQQTHYVPLTFGQGTKVEIKR

- binding [1]: binds
B2: Y022054 (antibody, V domains shown)
VH: EVQLLESGGGLVQPGGSLRLSCAASGFTFSSYAISWVRQAPGKGLEWVSAISGSGGSTYYAESVKGRFTISRDNSKNTLYLQMNSLRAEDTAVYYCARGYAEFGVWGQGTLVTVSS
VL: B1 VL with V11L, G28S, W32Y, A34N, H92W, Y93G, V94G, L96Q

- binding [8]: binds
- binding [9]: binds
- binding [10]: binds
- binding [11]: binds
- binding [12]: binds
- binding [13]: binds
- binding [14]: binds
- binding [15]: binds
B3: Y022883 (antibody, human IgG1, lambda, V domains shown)
VH: EVQLLESGGGLVQPGGSLRLSCAASGFSFTRYAISWVRQAPGKGLEWVSVISGHGSEANYAESVKGRFTISRDNSKNTLYLQMNSLRAEDTAVYYCARGFHYTHSGKRYYYPFDIWGQGTLVTVSS
VL: QSALTQPASVSGSPGQSITISCTGTSSDVGSYNLVSWYQQHPGKAPKLMIYEGSKRPSGVSNRFSGSKSGNTASLTISGLQAEDEADYYCSQYATFIAFAVFGGGTKLTVLG

- binding [16]: binds
- binding [11]: binds
- binding [14]: binds
- binding [17]: binds
B4: Fab Y022877 (Fab, V domains shown)
VH: B3 VH with S28T, T30S, I34M, S35T, V50T, H54L, S56Q, N59Y, E62G
VL: B3 VL

- binding [11]: binds
- binding [14]: binds
B5: Fab Y022870 (Fab, V domains shown)
VH: B3 VH with T30S, S35T, V50T, G53A, H54L, S56L, A58T, N59Y, K65R
VL: B3 VL

- binding [9]: binds
- binding [11]: binds
- binding [14]: binds
B6: Y022870 (antibody, human IgG1, lambda, V domains shown)
VH: B3 VH with T30S, S35T, V50T, G53A, H54L, S56L, A58T, N59Y, K65R
VL: B3 VL

- binding [16]: binds
- binding [11]: binds
- binding [14]: binds
- binding [17]: binds
B7: Fab Y022883 (Fab, V domains shown)
VH: B3 VH
VL: B3 VL

- binding [8]: binds
- binding [9]: binds
- binding [11]: binds
- binding [14]: binds
B8: Y022877 (antibody, human IgG1, lambda, V domains shown)
VH: B3 VH with S28T, T30S, I34M, S35T, V50T, H54L, S56Q, N59Y, E62G
VL: B3 VL
